Measurements taken from paper PMC11969748.
Results are given in words; binding and its absence hold for the method and conditions named. Binding seen in cells or lysates may run through a third protein. Some entries that bind do so weakly or less than the wild type. Tags and fused reporters may be left off the sequences shown.

Amino acid sequences for entries named in this document (tags omitted).
UniProt O43474: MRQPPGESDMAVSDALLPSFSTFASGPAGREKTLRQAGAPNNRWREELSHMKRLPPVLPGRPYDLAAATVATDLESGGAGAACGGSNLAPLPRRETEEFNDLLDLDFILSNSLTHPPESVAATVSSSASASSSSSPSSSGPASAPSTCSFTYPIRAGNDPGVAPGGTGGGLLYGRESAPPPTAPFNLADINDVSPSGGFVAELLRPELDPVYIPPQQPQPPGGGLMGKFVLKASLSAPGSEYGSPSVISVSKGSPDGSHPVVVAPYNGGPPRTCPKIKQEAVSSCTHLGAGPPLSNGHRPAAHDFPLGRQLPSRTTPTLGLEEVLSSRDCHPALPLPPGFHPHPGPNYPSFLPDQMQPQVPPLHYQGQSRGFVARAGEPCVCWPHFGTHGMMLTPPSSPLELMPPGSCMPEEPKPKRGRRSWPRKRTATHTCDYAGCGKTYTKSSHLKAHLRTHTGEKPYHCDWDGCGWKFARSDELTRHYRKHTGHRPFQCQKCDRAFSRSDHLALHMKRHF

B1: HA-tagged TRAF7 (TNF Receptor-Associated Factor 7) (protein, UniProt Q6Q0C0 1-670)
chain: MSSGKSARYNRFSGGPSNLPTPDVTTGTRMETTFGPAFSAVTTITKADGTSTYKQHCRTPSSSSTLAYSPRDEEDSMPPISTPRRSDSAISVRSLHSESSMSLRSTFSLPEEEEEPEPLVFAEQPSVKLCCQLCCSVFKDPVITTCGHTFCRRCALKSEKCPVDNVKLTVVVNNIAVAEQIGELFIHCRHGCRVAGSGKPPIFEVDPRGCPFTIKLSARKDHEGSCDYRPVRCPNNPSCPPLLRMNLEAHLKECEHIKCPHSKYGCTFIGNQDTYETHLETCRFEGLKEFLQQTDDRFHEMHVALAQKDQEIAFLRSMLGKLSEKIDQLEKSLELKFDVLDENQSKLSEDLMEFRRDASMLNDELSHINARLNMGILGSYDPQQIFKCKGTFVGHQGPVWCLCVYSMGDLLFSGSSDKTIKVWDTCTTYKCQKTLEGHDGIVLALCIQGCKLYSGSADCTIIVWDIQNLQKVNTIRAHDNPVCTLVSSHNVLFSGSLKAIKVWDIVGTELKLKKELTGLNHWVRALVAAQSYLYSGSYQTIKIWDIRTLDCIHVLQTSGGSVYSIAVTNHHIVCGTYENLIHVWDIESKEQVRTLTGHVGTVYALAVISTPDQTKVFSASYDRSLRVWSMDNMICTQTLLRHQGSVTALAVSRGRLFSGAVDSTVKVWTC

Tests used:
[1] = target: T1, HA-tagged TRAF7 (TNF Receptor-Associated Factor 7) (UniProt Q6Q0C0); experiment: co-IP; Protein A/G magnetic beads loaded with Flag, HA or normal IgG antibodies; binding buffer 50 mM Tris, 150 mM NaCl, 0.1%-0.5% Triton X-100 or Tween 20, pH 7.5; lysate of U251 cells co-expressing Flag-KLF4 and HA-TRAF7 incubated 10 min at room temperature; both orientations
T1 sequence: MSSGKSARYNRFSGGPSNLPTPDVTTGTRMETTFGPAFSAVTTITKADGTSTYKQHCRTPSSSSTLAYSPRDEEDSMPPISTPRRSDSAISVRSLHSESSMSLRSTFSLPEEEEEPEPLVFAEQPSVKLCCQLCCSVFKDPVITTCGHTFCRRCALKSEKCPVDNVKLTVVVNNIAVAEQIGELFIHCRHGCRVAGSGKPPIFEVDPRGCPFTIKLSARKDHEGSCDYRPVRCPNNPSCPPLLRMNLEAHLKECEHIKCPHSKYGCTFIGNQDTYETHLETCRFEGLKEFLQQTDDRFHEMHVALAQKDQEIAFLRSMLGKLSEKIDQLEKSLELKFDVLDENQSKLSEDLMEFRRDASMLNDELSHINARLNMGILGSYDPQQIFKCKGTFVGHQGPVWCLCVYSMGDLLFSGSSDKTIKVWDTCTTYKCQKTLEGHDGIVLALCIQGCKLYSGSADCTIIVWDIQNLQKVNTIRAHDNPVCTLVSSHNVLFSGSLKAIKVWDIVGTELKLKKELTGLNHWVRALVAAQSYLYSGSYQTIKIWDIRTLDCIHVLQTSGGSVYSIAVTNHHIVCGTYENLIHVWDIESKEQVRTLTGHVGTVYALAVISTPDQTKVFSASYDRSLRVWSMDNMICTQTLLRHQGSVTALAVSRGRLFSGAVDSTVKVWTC

[2] = target: Flag-tagged KLF4 (Krüppel-Like Factor 4) (UniProt O43474); experiment: as above

binding [1]	binding [2]	Molecule
binds	–	Flag-tagged KLF4 (Krüppel-Like Factor 4) (from UniProt O43474 1-513)
–	binds	B1
